# The shares of active, inactive and inconclusive entries below differ from those in the screen. Potencies beside an inconclusive call are fits to weak or partial responses and may not hold up. The source made the active and inactive calls. The call rests on the fitted dose curve; in most records, active means well fitted cell-killing curve with a large enough effect; inconclusive means small, poorly fitted or top-dose-only effect, or effect the other way; inactive means no such curve, though single readings can be large or run the other way. Bridge positions count the residues as written; N and C are the ends. Square brackets hold non-standard residues; d marks the D form. Peptide text beside a SMILES is read from it. * marks the point of attachment. ξ: configuration not given here. Octanoyl(6-Me) = CCC(C)CCCCC(=O)*; ξThr(3R) = C[C@@H](O)C(N)C(=O)O; dDab = NCC[C@@H](N)C(=O)O; Dab = NCC[C@H](N)C(=O)O
# Experiment: Quantitative High-Throughput drug screen in 47 multiple myeloma cell lines against the NCATS MIPE library collection: OPM2_DSMZ cell viability assay (AID 1919872); further: nearly all actives have a fitted effect of over 30% in size
# Conditions: OPM2 myeloma viability, CellTiter-Glo ATP luminescence, 48 h; series mostly up to 45.8 µM
# Source text: PI: Beverly A. Mock Ph.D.
# Laboratory of Cancer Biology and Genetics,
# Center for Cancer Research, National Cancer Institute,
# National Institute of Health, Bethesda, Maryland
# Drug resistance and disease progression are common in multiple myeloma (MM) patients, underscoring the need for new therapeutic combinations. […] We hypothesized that effective combinations would reduce MYC expression and enhance p16 activity. […] These preclinical data identify potentially useful drug combinations for evaluation in drug-resistant MM and reveal potential mechanisms of combined drug sensitivity.
# Described herein is the primary MIPE qHTS used to cherrypick compounds. Validated compounds were then further tested for potential synergistic activiy.
# [1] Peat TJ, Gaikwad SM, Dubois W, Gyabaah-Kessie N, Zhang S, Gorjifard S, Phyo Z, Andres M, Hughitt VK, Simpson RM, Miller MA, Girvin AT, Taylor A, Williams D, D'Antonio N, Zhang Y, Rajagopalan A, Flietner E, Wilson K, Zhang X, Shinn P, Klumpp-Thomas C, McKnight C, Itkin Z, Chen L, Kazandijian D, Zhang J, Michalowski AM, Simmons JK, Keats J, Thomas CJ, Mock BA. Drug combinations identified by high-throughput screening promote cell cycle transition and upregulate Smad pathways in myeloma. Cancer Lett. 2023 Aug 1;568:216284. doi: 10.1016/j.canlet.2023.216284. Epub 2023 Jun 24. PMID: 37356470; PMCID: PMC10408729.
# SEQUENCE No. (e.g., 1, 2, 3, etc.); […] (e.g., Cells, Incubation, Reagent, etc.); VALUE and DESCRIPTION.
# 1; Cells; 5 uL; white, solid bottom 1536-well Greiner assay plate.
# 2; Compounds; 23 nL; Kalypsis pin tool (Wako USA) equipped with a 1536-well pin head to transfer to the assay plates.
# 3; Incubation; 48 hours; 37C incubation.
# 4; Reagent;5uL; CellTiter Glo (Promega).
# 5; Detector; 425V; Luminescence; Viewlux PerkinElmer.
# NOTES (numbers refer to Sequence numbers above)
# 1. The cell-based screening methods employed in this study were like those previously published. Briefly, the corresponding myeloma cell lines were screened in 1,536-well plates with 500 cells, 5-uL per well for inhibition of cell viability (assessed by measuring ATP levels with CellTiterGlo).
# 2. NCATS MIPE 4.0 library of approved and investigational drugs were added using the Kalypsis pin tool. Wells treated with DMSO only for 100% viability and media only wells for 0% viability were used as controls.
# 3. The assay plates were covered and incubated for 48 hours in a 37C, 5% CO2 incubator with controlled humidity.
# 4. After 48 hours, CellTilter-GloTM luminescent substrate mix (Promega) reagent was added to the assay plate and plates we incubated for 5 min at room temperature.
# 5. Signal was measured as median relative luminescence units on a ViewLux (PerkinElmer) multiplate reader.
# [1] Heske CM, Davis MI, Baumgart JT, Wilson K, Gormally MV, Chen L, Zhang X, Ceribelli M, Duveau DY, Guha R, Ferrer M, Arnaldez FI, Ji J, Tran HL, Zhang Y, Mendoza A, Helman LJ, Thomas CJ. Matrix Screen Identifies Synergistic Combination of PARP Inhibitors and Nicotinamide Phosphoribosyltransferase (NAMPT) Inhibitors in Ewing Sarcoma. Clin Cancer Res. 2017 Dec 1;23(23):7301-7311. doi: 10.1158/1078-0432.CCR-17-1121. Epub 2017 Sep 12. PMID: 28899971; PMCID: PMC6636827.
# Potency means the concentration at half of the fitted maximal effect.
row,SMILES,Potency
1,CNC(=O)c1ccc(-c2cnc3ncc(Cc4ccc5ncccc5c4)n3n2)cc1F,inactive
2,CCC(C)CCCCC(=O)N[C@@H](CCN)C(=O)NC(C(=O)N[C@H](CCN)C(=O)N[C@@H]1CCNC(=O)C([C@@H](C)O)NC(=O)[C@@H](CCN)NC(=O)[C@@H](CCN)NC(=O)[C@@H](CC(C)C)NC(=O)[C@H](Cc2ccccc2)NC(=O)[C@H](CCN)NC1=O)[C@@H](C)O (stereo partly drawn) ({Octanoyl(6-Me)}-[Dab][ξThr(3R)][dDab][dDab][Dab]F[dL][dDab][dDab][ξThr(3R)]; lactam 4-C),inactive
3,CCn1c(C(=O)N(C2CC2)C2CC2)cc2c3c(ncn3C)c(Nc3cc(C)n(C)n3)nc21,"inconclusive: 37.2 µM [cytotoxic, single point]"
4,CCOC(=O)C1=C(N)Oc2ccc(Br)cc2C1C(C#N)C(=O)OCC (stereo not given),"inconclusive: 26.4 µM [cytotoxic, single point]"
5,CC(=O)O[C@]1(C(C)=O)CC[C@@H]2[C@@H]3C[C@H](C)C4=CC(=O)CC[C@]4(C)[C@H]3CC[C@@]21C,"inconclusive: 33.2 µM [cytotoxic, single point]"
6,CC[C@H]1OC(=O)[C@H](C)C(=O)[C@H](C)[C@@H](O[C@H]2O[C@H](C)C[C@H](N(C)C)[C@@H]2O)[C@](C)(OC)C[C@@H](C)C(=O)[C@H](C)[C@H]2N(CCCCn3cnc(-c4cccnc4)c3)C(=O)O[C@]12C,"inconclusive: 33.2 µM [cytotoxic, single point]"
7,COC(=O)N[C@H](C(=O)N1CCC[C@@H]1c1ncc(-c2ccc(-c3ccc(-c4cnc([C@@H]5CCCN5C(=O)[C@@H](NC(=O)OC)C(C)C)[nH]4)cc3)cc2)[nH]1)C(C)C,"inconclusive: 37.2 µM [cytotoxic, single point]"
8,O=c1ccn([C@@H]2O[C@H](CO)[C@H](O)[C@H]2O)c(=O)[nH]1,"inconclusive: 11.8 µM [cytotoxic, partial curve, poor fit]"
9,Cc1c(C)n(Cc2ccc(-c3ccccc3C(=O)O)cc2)c2ccc(C(=O)N[C@@H](C)c3ccc([N+](=O)[O-])cc3)cc12,inactive
10,O=C(NC(Cc1cc(=O)[nH]c2ccccc12)C(=O)O)c1ccc(Cl)cc1 (stereo not given),inactive
11,O=C(Nc1cccc(Br)c1)c1cccc(S(=O)(=O)N2CCCCCC2)c1,"inconclusive: 3.72 µM [cytotoxic, full curve, poor fit]"
12,CN1C(=O)C[C@H](C(=O)N[C@@H](Cc2cnc[nH]2)C(=O)N2CCC[C@@H]2C(N)=O)NC1=O,"inconclusive: 2.96 µM [cytotoxic, full curve, poor fit]"
13,O=c1[nH]cnc2c1ncn2[C@H]1CC[C@@H](CO)O1,inactive
14,COc1nccc(-c2c(-c3ccc(F)cc3)ncn2C2CCC(O)CC2)n1 (stereo not given),"inconclusive: 16.6 µM [cytotoxic, partial curve, poor fit]"
15,CCOC(=O)c1ccc(OC(=O)CCCCCN=C(N)N)cc1,inactive
16,CCC(=O)N[C@H]1CC[C@H](C(=O)N(C)c2ccc(-c3nc4ccccc4o3)cc2)C1,inactive
17,CC[C@H](CO)Nc1nc(NCc2ccccc2)c2ncn(C(C)C)c2n1,"inconclusive: 33.2 µM [cytotoxic, single point]"
18,CCOC(=O)C1=C(O)C(=O)N(Cc2ccccc2)C1,inactive
19,N#Cc1ccc(Oc2ccc3c(c2)COB3O)cc1,inactive
20,Cn1cc(C=C2C(=O)Nc3cccnc32)c2ccccc21,inactive

row,SMILES,Potency
1,C[C@]12CCC3c4ccc(O)cc4CCC3C1CCC2=O (stereo not given in full),inactive
2,COc1ccc(C(=O)CC(=O)c2ccc(C(C)(C)C)cc2)cc1,"inconclusive: 20.9 µM [cytotoxic, single point]"
3,C=C1C(=O)OC2C=C(C)CCC=C(C)CCC12 (stereo not given),active: 20.9 µM
4,O=C(C=Cc1cccnc1)NCCCCC1CCN(C(=O)c2ccccc2)CC1,"inconclusive: 0.0235 µM [cytotoxic, full curve, poor fit]"
5,COc1ccc(-c2nc(N3CCOCC3)c3sc(CN(C)c4ncc(C(=O)NO)cn4)cc3n2)cn1,active: 0.0021 µM
6,c1ccc2c(-c3cnn4cc(-c5ccc(N6CCNCC6)cc5)cnc34)ccnc2c1,"inconclusive: 0.0033 µM [rising, full curve]"
7,CC[C@H]1OC(=O)[C@H](C)[C@@H](O[C@H]2C[C@@](C)(OC)[C@@H](O)[C@H](C)O2)[C@H](C)[C@@H](O[C@@H]2O[C@H](C)C[C@H](N(C)C)[C@@H]2O)[C@](C)(O)C[C@@H](C)CN(C)[C@H](C)[C@@H](O)[C@]1(C)O,"inconclusive: 0.0118 µM [rising, full curve, poor fit]"
8,Cc1cccc(C)c1OCC(=O)N[C@@H](Cc1ccccc1)[C@@H](O)C[C@H](Cc1ccccc1)NC(=O)[C@H](C(C)C)N1CCCNC1=O,"inconclusive: 26.4 µM [cytotoxic, single point]"
9,NC(=O)c1ccc(N(C(N)=O)c2c(F)cccc2F)nc1-c1ccc(F)cc1F,inactive
10,Cc1cc(C2CCCCC2)n(O)c(=O)c1,"inconclusive: 20.9 µM [cytotoxic, partial curve]"
11,O=C(NC1CCOCC1)c1ccc(-c2cc(-c3cn[nH]c3-c3ccccn3)ccn2)cc1,"inconclusive: 14.8 µM [cytotoxic, partial curve, poor fit]"
12,CC(C)n1cnc2c(NCCCCCCNC(=O)OC(C)(C)C)nc(NCCO)nc21,"inconclusive: 23.5 µM [cytotoxic, partial curve, poor fit]"
13,C[C@]12CC[C@H](O)CC1=CCC1C2CC[C@]2(C)C(n3cnc4ccccc43)=CCC12 (stereo not given in full),"inconclusive: 37.2 µM [cytotoxic, single point]"
14,CCCn1c(=O)c2[nH]c(-c3cnn(Cc4cccc(C(F)(F)F)c4)c3)nc2n(CC)c1=O,"inconclusive: 6.62 µM [cytotoxic, partial curve, poor fit]"
15,Cn1c2cc(S(C)=O)sc2c2cnn(Cc3cccc(N)c3)c(=O)c21 (stereo not given),inactive
16,C=CCc1cc(OC)c(O)c(C(=O)NCCO)c1,inactive
17,COC(=O)N1CCN(Cc2cccc(NC(=O)Nc3ccc(C)nc3)c2F)CC1,inactive
18,CC[C@H]1OC(=O)[C@H](C)[C@@H](O[C@H]2C[C@@](C)(OC)[C@@H](O)[C@H](C)O2)[C@H](C)[C@@H](O[C@@H]2O[C@H](C)C[C@H](N(C)C)[C@H]2O)[C@](C)(O)C[C@H](C)C(=NOCOCCOC)[C@H](C)[C@@H](O)[C@]1(C)O,inactive
19,Cc1ccc(-n2[nH]c(C)c(N=Nc3cccc(-c4cccc(C(=O)O)c4)c3O)c2=O)cc1C,"inconclusive: 33.2 µM [cytotoxic, partial curve, poor fit]"
20,CN(C)S(=O)(=O)c1ccc2c(c1)C(=Cc1cc3c([nH]1)CCCC3)C(=O)N2,"inconclusive: 20.9 µM [cytotoxic, partial curve]"

# Entries shown so far with a cyano group, in the order listed:
row,SMILES,Potency
4,CCOC(=O)C1=C(N)Oc2ccc(Br)cc2C1C(C#N)C(=O)OCC (stereo not given),"inconclusive: 26.4 µM [cytotoxic, single point]"
19,N#Cc1ccc(Oc2ccc3c(c2)COB3O)cc1,inactive

# A second format for 2 compounds above.
row | SMILES | Potency
9 | NC(=O)c1ccc(N(C(N)=O)c2c(F)cccc2F)nc1-c1ccc(F)cc1F | inactive
10 | Cc1cc(C2CCCCC2)n(O)c(=O)c1 | inconclusive: 20.9 µM [cytotoxic, partial curve]

# — PubChem BioAssay (NCATS)
